According to publication PMC9281110:
Results are given in words; binding and its absence hold for the method and conditions named. In cells and extracts the contact can be indirect. These calls come from enrichment with a bait or labelling near it, and not all partners need be listed. Where a sequence is shown, tags or fusion partners need not be part of it.

By UniProt entry, the sequences of proteins in these tests, tags left out.
UniProt P28290: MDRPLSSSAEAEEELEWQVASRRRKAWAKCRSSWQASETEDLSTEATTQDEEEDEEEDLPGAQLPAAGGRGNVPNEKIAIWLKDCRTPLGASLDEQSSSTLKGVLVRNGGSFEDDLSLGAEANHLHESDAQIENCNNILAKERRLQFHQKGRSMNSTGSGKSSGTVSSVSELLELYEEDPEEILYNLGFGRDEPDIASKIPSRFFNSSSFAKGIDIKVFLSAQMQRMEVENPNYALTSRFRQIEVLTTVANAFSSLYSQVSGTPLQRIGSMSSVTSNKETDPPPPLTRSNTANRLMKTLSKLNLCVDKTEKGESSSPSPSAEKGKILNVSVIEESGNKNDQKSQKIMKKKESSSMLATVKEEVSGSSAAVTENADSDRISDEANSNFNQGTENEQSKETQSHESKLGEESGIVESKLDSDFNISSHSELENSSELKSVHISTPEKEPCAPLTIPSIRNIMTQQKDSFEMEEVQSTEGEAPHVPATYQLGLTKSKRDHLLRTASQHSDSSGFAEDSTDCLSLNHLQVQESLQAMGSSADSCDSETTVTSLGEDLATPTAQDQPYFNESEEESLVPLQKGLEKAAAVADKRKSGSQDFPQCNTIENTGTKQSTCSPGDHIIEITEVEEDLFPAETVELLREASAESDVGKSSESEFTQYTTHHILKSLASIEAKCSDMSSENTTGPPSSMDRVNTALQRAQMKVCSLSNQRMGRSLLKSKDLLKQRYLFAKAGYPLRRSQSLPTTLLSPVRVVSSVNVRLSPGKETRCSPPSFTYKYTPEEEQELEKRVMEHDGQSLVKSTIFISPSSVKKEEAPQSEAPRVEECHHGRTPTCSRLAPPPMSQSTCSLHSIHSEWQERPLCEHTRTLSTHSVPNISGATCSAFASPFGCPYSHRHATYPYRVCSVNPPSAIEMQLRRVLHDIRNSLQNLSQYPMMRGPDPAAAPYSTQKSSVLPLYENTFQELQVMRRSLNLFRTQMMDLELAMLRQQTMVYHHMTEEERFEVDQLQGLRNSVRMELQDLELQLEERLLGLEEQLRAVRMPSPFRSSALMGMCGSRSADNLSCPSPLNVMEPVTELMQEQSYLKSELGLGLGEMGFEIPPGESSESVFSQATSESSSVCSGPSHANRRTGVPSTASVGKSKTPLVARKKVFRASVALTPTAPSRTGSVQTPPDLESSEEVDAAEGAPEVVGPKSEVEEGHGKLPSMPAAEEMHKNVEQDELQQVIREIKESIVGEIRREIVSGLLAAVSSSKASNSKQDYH

Biological target: sperm specific antigen 2 (SSFA2), endogenous in human testes (human (endogenous in human testes)) (UniProt P28290)
Assay: affinity purification with mass spectrometry; immunoprecipitation with the SSFA2 primary antibody from total proteins of normal human testes, in-gel digestion, LC-MS/MS

binding: binds
B1: GSTM3, endogenous in human testes (protein, UniProt P21266 1-225)
chain: MSCESSMVLGYWDIRGLAHAIRLLLEFTDTSYEEKRYTCGEAPDYDRSQWLDVKFKLDLDFPNLPYLLDGKNKITQSNAILRYIARKHNMCGETEEEKIRVDIIENQVMDFRTQLIRLCYSSDHEKLKPQYLEELPGQLKQFSMFLGKFSWFAGEKLTFVDFLTYDILDQNRIFDPKCLDEFPNLKAFMCRFEALEKIAAYLQSDQFCKMPINNKMAQWGNKPVC
